# The supplement of paper PMC11732987, “Enantioselective OTUD7B fragment discovery through chemoproteomics screening and high-throughput optimisation” (Communications Chemistry, 2025)
# The chains behind the UniProt entries cited, without tags or fusion partners. Where a name states a change or a piece, a line headed by the entry shows the natural chain unless it says otherwise. Residues count along the entry.
# UniProt Q5VWN6, 605-629: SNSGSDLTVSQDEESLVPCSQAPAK
# UniProt O60343, 749-768: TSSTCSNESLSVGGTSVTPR
# UniProt Q99426: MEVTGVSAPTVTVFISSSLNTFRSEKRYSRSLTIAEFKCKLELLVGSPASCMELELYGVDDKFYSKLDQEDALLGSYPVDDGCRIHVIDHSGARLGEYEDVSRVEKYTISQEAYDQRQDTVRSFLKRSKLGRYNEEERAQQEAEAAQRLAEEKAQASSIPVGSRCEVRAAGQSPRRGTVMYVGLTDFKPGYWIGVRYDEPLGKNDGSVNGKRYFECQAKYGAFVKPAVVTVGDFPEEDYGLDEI
# UniProt O15040: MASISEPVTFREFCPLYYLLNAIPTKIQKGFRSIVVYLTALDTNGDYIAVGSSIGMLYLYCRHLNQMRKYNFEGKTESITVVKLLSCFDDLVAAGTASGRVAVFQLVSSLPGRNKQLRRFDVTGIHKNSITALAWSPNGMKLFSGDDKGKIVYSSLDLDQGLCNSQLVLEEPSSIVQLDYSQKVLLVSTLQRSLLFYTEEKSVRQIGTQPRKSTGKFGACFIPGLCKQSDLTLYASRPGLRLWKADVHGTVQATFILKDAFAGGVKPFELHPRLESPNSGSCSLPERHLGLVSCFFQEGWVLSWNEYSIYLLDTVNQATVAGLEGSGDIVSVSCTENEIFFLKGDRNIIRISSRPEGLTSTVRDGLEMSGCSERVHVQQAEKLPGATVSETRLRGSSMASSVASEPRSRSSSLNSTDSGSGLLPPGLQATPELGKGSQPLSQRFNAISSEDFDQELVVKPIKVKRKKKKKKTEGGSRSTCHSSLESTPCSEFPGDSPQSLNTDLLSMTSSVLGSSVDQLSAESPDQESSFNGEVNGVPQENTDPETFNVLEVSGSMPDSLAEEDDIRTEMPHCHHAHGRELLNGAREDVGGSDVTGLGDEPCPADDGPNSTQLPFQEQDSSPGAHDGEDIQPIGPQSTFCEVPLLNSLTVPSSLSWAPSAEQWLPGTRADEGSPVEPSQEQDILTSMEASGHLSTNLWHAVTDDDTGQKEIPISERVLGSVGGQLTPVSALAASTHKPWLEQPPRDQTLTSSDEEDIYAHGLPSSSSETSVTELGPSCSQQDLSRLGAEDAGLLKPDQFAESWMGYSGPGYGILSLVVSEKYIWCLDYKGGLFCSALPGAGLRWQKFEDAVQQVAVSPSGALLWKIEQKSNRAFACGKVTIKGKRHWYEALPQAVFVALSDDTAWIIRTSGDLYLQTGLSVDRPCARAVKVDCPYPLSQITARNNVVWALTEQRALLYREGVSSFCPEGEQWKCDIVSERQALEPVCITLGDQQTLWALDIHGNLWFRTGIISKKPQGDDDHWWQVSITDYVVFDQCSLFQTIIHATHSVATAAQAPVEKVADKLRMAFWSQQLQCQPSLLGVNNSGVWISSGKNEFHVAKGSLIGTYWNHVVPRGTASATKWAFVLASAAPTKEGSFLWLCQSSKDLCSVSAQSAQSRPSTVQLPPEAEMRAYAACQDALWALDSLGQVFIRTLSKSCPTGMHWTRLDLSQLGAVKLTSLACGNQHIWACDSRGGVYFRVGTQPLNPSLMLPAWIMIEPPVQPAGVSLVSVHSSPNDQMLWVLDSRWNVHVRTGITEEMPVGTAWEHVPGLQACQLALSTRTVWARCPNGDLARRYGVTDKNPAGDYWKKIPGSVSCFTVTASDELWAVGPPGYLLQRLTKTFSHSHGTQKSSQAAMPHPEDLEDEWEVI
# UniProt Q12800: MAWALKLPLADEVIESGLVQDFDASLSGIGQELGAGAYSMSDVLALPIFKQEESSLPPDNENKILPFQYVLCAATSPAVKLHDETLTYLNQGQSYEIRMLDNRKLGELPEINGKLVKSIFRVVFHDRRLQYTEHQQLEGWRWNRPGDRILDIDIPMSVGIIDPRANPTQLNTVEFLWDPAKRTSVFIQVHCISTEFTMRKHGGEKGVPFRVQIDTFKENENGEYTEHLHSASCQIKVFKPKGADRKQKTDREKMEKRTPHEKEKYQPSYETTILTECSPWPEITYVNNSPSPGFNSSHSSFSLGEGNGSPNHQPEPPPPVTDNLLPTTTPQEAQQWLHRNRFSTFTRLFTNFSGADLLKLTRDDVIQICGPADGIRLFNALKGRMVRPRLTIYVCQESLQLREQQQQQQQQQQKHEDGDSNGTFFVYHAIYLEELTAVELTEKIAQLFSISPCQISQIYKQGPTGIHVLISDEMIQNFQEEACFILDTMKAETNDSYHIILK
# UniProt Q7L7X3: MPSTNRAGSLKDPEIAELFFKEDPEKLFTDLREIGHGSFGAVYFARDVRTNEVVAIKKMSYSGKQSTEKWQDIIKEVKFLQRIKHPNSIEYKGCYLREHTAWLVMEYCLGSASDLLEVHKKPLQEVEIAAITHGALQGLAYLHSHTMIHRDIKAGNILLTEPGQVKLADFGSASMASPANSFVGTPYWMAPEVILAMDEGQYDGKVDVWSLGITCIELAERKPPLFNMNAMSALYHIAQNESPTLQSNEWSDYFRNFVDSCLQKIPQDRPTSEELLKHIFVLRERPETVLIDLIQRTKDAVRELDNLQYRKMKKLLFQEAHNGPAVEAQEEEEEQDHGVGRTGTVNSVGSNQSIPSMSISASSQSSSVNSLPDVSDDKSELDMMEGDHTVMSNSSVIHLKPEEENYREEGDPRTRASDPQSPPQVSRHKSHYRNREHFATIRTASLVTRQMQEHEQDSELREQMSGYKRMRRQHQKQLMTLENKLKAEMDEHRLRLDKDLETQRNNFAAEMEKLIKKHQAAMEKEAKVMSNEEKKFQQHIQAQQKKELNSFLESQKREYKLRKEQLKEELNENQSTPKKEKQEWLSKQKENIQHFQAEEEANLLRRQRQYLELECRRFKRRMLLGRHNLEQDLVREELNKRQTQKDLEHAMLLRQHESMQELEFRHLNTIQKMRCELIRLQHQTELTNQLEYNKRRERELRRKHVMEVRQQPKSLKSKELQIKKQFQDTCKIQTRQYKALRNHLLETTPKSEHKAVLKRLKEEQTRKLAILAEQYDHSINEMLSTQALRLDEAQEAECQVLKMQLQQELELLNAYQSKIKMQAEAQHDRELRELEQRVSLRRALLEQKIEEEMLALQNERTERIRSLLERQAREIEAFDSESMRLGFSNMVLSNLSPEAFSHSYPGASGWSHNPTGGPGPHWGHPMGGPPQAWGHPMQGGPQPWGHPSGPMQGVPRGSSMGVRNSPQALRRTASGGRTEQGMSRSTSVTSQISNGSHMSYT
# UniProt Q15542: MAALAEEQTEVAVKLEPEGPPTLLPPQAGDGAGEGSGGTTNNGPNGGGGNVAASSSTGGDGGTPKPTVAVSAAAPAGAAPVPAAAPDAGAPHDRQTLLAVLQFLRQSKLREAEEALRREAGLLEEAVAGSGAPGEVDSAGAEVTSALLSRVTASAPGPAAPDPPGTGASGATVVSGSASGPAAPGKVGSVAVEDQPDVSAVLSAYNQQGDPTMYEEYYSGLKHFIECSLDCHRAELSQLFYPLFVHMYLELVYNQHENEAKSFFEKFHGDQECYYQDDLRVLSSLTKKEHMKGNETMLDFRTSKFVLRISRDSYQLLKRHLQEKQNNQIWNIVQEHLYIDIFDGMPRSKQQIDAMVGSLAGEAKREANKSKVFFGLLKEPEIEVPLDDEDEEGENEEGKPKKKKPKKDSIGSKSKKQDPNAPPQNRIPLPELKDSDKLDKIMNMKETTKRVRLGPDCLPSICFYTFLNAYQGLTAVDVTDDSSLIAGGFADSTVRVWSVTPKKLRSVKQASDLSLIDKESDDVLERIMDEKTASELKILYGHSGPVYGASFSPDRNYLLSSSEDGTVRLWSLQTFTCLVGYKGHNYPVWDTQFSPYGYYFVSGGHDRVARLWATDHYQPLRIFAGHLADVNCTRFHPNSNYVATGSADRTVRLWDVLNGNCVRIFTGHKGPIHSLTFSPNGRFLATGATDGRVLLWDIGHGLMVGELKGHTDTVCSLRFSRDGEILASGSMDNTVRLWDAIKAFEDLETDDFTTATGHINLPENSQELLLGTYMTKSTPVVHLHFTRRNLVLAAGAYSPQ
# UniProt Q8WUY1: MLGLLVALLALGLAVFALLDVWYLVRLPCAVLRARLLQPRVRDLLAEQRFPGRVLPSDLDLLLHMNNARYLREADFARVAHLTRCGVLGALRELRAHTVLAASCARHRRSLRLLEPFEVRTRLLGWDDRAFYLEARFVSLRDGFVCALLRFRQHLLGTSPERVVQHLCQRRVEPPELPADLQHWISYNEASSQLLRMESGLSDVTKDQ
# UniProt Q9NYJ8: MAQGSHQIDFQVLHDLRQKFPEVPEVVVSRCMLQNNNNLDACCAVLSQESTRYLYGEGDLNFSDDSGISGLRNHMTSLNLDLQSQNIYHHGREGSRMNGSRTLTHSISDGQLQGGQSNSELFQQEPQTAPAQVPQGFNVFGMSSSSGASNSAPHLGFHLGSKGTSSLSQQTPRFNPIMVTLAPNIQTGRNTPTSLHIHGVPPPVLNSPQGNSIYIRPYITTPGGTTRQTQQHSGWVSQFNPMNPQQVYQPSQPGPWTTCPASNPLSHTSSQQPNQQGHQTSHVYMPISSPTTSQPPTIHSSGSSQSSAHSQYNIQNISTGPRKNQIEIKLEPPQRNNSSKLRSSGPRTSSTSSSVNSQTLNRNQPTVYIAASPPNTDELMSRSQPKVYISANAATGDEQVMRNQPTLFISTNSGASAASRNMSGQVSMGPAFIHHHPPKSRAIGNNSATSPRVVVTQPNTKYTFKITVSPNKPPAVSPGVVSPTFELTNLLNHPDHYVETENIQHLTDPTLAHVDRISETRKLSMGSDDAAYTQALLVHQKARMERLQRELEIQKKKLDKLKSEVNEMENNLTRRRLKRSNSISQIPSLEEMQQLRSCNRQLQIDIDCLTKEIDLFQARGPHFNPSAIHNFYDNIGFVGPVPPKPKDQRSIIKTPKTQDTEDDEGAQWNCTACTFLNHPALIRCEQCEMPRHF
# UniProt Q93075: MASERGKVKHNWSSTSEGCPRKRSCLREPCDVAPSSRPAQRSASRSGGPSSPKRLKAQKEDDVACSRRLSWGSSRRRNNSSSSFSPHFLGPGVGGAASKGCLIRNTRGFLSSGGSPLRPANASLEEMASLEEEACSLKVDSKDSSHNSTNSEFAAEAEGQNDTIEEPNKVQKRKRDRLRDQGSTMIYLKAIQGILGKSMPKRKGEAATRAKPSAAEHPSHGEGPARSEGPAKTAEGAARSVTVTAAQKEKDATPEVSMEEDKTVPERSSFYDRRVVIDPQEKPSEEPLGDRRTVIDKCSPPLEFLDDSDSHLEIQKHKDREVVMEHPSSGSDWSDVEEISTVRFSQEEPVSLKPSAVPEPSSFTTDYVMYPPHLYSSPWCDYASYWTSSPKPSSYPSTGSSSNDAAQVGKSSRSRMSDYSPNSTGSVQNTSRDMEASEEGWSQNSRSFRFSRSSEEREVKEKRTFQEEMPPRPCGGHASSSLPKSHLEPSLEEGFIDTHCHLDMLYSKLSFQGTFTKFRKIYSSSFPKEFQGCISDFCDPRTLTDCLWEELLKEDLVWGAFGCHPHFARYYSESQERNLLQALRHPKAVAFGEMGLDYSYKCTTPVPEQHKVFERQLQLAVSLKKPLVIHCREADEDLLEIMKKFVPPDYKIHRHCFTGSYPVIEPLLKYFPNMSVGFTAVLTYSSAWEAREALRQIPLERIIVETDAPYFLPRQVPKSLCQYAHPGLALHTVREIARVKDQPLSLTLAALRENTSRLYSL
# UniProt Q8TEA7: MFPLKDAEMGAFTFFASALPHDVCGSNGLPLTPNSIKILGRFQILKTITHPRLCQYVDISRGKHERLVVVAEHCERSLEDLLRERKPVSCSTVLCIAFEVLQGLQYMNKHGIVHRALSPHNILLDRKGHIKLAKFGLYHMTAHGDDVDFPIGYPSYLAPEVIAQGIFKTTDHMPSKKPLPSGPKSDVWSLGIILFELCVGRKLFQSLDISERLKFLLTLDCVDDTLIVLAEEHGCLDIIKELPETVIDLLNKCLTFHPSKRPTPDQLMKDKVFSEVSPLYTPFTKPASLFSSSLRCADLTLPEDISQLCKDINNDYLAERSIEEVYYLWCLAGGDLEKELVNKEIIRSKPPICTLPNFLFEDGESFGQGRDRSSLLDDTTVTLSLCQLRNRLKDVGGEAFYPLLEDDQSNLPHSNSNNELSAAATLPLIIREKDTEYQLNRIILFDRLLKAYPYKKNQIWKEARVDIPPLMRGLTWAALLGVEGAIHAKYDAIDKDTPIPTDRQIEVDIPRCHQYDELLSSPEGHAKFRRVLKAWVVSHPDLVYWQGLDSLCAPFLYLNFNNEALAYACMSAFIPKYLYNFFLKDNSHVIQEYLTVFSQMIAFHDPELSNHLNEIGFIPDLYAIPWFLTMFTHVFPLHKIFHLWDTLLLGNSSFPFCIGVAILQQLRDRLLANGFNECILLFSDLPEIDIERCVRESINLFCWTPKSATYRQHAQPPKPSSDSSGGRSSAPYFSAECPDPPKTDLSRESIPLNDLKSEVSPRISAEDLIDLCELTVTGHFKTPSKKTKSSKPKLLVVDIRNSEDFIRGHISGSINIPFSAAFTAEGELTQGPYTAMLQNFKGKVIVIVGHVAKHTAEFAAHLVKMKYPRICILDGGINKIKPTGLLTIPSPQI
# Some of the results follow. The data scatter; read single values as rough.
# Compound: ClCC(=O)N[C@@H]1CCCc2ccccc12
# Test: log2 mean competition ratio of IA-DTB cysteine labelling (DMSO/compound) (log2 ratio); higher = stronger cysteine engagement by compound
# Conditions: 50 µM; treatment time: 4 h; cell line lysate: HEK293T
# Description: (§1)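 IA-DTB competitive cysteine chemoproteomics in HEK293T RIPA lysate. Lysates were treated with compound 29 or 30 at 50 or 200 µM for 4 h, then IA-DTB (500 µM, 1 h), trypsin-digested, NeutrAvidin-enriched and analysed by diaPASEF. Competition ratio = intensity DMSO / intensity compound (n=4 treated, n=64 DMSO); binding: mean log2 CR ≥ 1 and p ≤ 0.05 plus QC filters. Target is the cysteine site.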
row,Target,log2 mean competition ratio
1,TAF5L C188 (UniProt O75529),-0.1
2,TBC1D13 C387 (UniProt Q9NVG8),-0.14
3,TASOR2 C1432 (UniProt Q5VWN6),-0.0571
4,TBC1D4 C156 (UniProt O60343),0.0692
5,TBCB C216 (UniProt Q99426),-0.117
6,TECPR2 C371 (UniProt O15040),-0.0205
7,TASOR2 C1423 (UniProt Q5VWN6),-0.0918
8,TBL3 C444 (UniProt Q12788),-0.23
9,TFCP2 C369 (UniProt Q12800),0.0615
10,THNSL1 C277 (UniProt Q8IYQ7),-0.0348
11,TCEAL8 C5 (UniProt Q8IYN2),-0.0874
12,TADA2B C123 (UniProt Q86TJ2),0.223
13,TAOK1 C798 (UniProt Q7L7X3),-0.103
14,TES C46 (UniProt Q9UGI8),-0.083
15,THOC1 C156 (UniProt Q96FV9),0.139
16,THOC2 C931,0.139
17,THADA C1585 (UniProt Q6YHU6),0.267
18,TAP2 C353 (UniProt Q03519),0.00893
19,TAPT1 C487 (UniProt Q6NXT6),0.412

row,Target,log2 mean competition ratio
1,TAF5 C632 (UniProt Q15542),-0.0186
2,TBC1D15 C184 (UniProt Q8TC07),0.349
3,THUMPD3 C505 (UniProt Q9BV44),-0.138
4,TBL2 C247 (UniProt Q9Y4P3),0.509
5,TES C196 (UniProt Q9UGI8),-0.118
6,TBC1D15 C686 (UniProt Q8TC07),-0.108
7,TENM2 C774,-0.264
8,TEPSIN C243,-0.0605
9,THEM6 C168 (UniProt Q8WUY1),0.245
10,TAB2 C608 (UniProt Q9NYJ8),0.055
11,TICRR C1694 (UniProt Q7Z2Z1),0.142
12,TBC1D4 C753 (UniProt O60343),-0.139
13,TES C22 (UniProt Q9UGI8),-0.0185
14,TASOR C830 (UniProt Q9UK61),-0.144
15,TBC1D1 C766 (UniProt Q86TI0),-0.198
16,TASOR2 C623 (UniProt Q5VWN6),-0.626
17,TATDN2 C19 (UniProt Q93075),0.159
18,TBCK C512 (UniProt Q8TEA7),0.383
19,TELO2 C518 (UniProt Q9Y4R8),0.026

# Same assay, conditions: 200 µM; treatment time: 4 h; cell line lysate: HEK293T
row,Target,log2 mean competition ratio
1,TAF5L C188 (UniProt O75529),0.308
2,TBC1D13 C387 (UniProt Q9NVG8),0.0192
3,TASOR2 C1432 (UniProt Q5VWN6),0.0506
4,TBC1D4 C156 (UniProt O60343),0.0751
5,TBCB C216 (UniProt Q99426),-0.104
6,TECPR2 C371 (UniProt O15040),0.0466
7,TASOR2 C1423 (UniProt Q5VWN6),0.0869
8,TBL3 C444 (UniProt Q12788),-0.39
9,TFCP2 C369 (UniProt Q12800),-0.0803
10,THNSL1 C277 (UniProt Q8IYQ7),0.098
11,TCEAL8 C5 (UniProt Q8IYN2),-0.0845
12,TADA2B C123 (UniProt Q86TJ2),-0.0316
13,TAOK1 C798 (UniProt Q7L7X3),-0.253
14,TES C46 (UniProt Q9UGI8),-0.0686
15,THOC1 C156 (UniProt Q96FV9),0.747
16,THOC2 C931,-0.0844
17,THADA C1585 (UniProt Q6YHU6),0.146
18,TAP2 C353 (UniProt Q03519),0.872
19,TAPT1 C487 (UniProt Q6NXT6),-0.106

row,Target,log2 mean competition ratio
1,TAF5 C632 (UniProt Q15542),0.322
2,TBC1D15 C184 (UniProt Q8TC07),0.144
3,THUMPD3 C505 (UniProt Q9BV44),-0.0839
4,TBL2 C247 (UniProt Q9Y4P3),0.289
5,TES C196 (UniProt Q9UGI8),0.253
6,TBC1D15 C686 (UniProt Q8TC07),0.0114
7,TENM2 C774,-0.16
8,TEPSIN C243,0.595
9,THEM6 C168 (UniProt Q8WUY1),0.0943
10,TAB2 C608 (UniProt Q9NYJ8),0.0976
11,TICRR C1694 (UniProt Q7Z2Z1),0.236
12,TBC1D4 C753 (UniProt O60343),-0.0625
13,TES C22 (UniProt Q9UGI8),0.0627
14,TASOR C830 (UniProt Q9UK61),0.0275
15,TBC1D1 C766 (UniProt Q86TI0),0.457
16,TASOR2 C623 (UniProt Q5VWN6),0.0569
17,TATDN2 C19 (UniProt Q93075),0.256
18,TBCK C512 (UniProt Q8TEA7),-0.0439
19,TELO2 C518 (UniProt Q9Y4R8),-0.209

# Compound: ClCC(=O)N[C@H]1CCCc2ccccc12
# Test: as above
# Conditions: 50 µM; treatment time: 4 h; cell line lysate: HEK293T
# Description: as §1
row,Target,log2 mean competition ratio
1,TAF5L C188 (UniProt O75529),0.113
2,TBC1D13 C387 (UniProt Q9NVG8),-0.335
3,TASOR2 C1432 (UniProt Q5VWN6),-0.191
4,TBC1D4 C156 (UniProt O60343),0.0554
5,TBCB C216 (UniProt Q99426),0.13
6,TECPR2 C371 (UniProt O15040),-0.012
7,TASOR2 C1423 (UniProt Q5VWN6),0.13
8,TBL3 C444 (UniProt Q12788),-0.279
9,TFCP2 C369 (UniProt Q12800),-0.313
10,THNSL1 C277 (UniProt Q8IYQ7),0.108
11,TCEAL8 C5 (UniProt Q8IYN2),-0.0211
12,TADA2B C123 (UniProt Q86TJ2),-0.0756
13,TAOK1 C798 (UniProt Q7L7X3),-0.259
14,TES C46 (UniProt Q9UGI8),-0.484
15,THOC1 C156 (UniProt Q96FV9),0.417
16,THOC2 C931,0.465
17,THADA C1585 (UniProt Q6YHU6),0.359
18,TAP2 C353 (UniProt Q03519),0.215
19,TAPT1 C487 (UniProt Q6NXT6),-0.0287

row,Target,log2 mean competition ratio
1,TAF5 C632 (UniProt Q15542),-0.285
2,TBC1D15 C184 (UniProt Q8TC07),0.118
3,THUMPD3 C505 (UniProt Q9BV44),0.213
4,TBL2 C247 (UniProt Q9Y4P3),0.15
5,TES C196 (UniProt Q9UGI8),-0.58
6,TBC1D15 C686 (UniProt Q8TC07),0.403
7,TENM2 C774,-0.268
8,TEPSIN C243,0.352
9,THEM6 C168 (UniProt Q8WUY1),0.347
10,TAB2 C608 (UniProt Q9NYJ8),-0.195
11,TICRR C1694 (UniProt Q7Z2Z1),0.181
12,TBC1D4 C753 (UniProt O60343),0.444
13,TES C22 (UniProt Q9UGI8),-0.413
14,TASOR C830 (UniProt Q9UK61),0.11
15,TBC1D1 C766 (UniProt Q86TI0),-0.466
16,TASOR2 C623 (UniProt Q5VWN6),0.103
17,TATDN2 C19 (UniProt Q93075),0.317
18,TBCK C512 (UniProt Q8TEA7),-0.226
19,TELO2 C518 (UniProt Q9Y4R8),0.0441
